Some of the results follow.
Experiments:
Test in all cases: glycan array binding signal (z-score within array); higher = stronger binding
Details in all cases: glycan notation: IUPAC condensed, linker removed
[1] = molecular target: GlcNAc(b1-3)Gal(b1-4)GlcNAc(b1-6)[GlcNAc(b1-3)Gal(b1-3)]GalNAc
Procedure, shortened: (§1)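 The binding signal is a Z-score computed within each array and averaged over linkers. Arrays of the same protein sequence at different concentrations or buffers were also averaged together. Data originate from 3228 arrays in the Consortium for Functional Glycomics database, kept only where the protein sequence was available.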

[2] = molecular target: GlcNAc(b1-3)Gal(b1-4)GlcNAc(b1-6)[GlcNAc(b1-3)]Gal(b1-4)GlcNAc
Procedure, shortened: as §1

GlcNAc(b1-3)GalNAc = molecular target: GlcNAc(b1-3)GalNAc
Procedure, shortened: as §1

GlcNAc(b1-3)Man = molecular target: GlcNAc(b1-3)Man
Procedure, shortened: as §1

[3] = molecular target: GlcNAc(b1-3)[GlcNAc(b1-4)][GlcNAc(b1-6)]GlcNAc
Procedure, shortened: as §1

[4] = molecular target: GlcNAc(b1-3)[GlcNAc(b1-6)]Gal(b1-4)GlcNAc
Procedure, shortened: as §1

[5] = molecular target: GlcNAc(b1-3)[GlcNAc(b1-6)]GalNAc
Procedure, shortened: as §1

[6] = molecular target: GlcNAc(b1-4)Gal(b1-4)GlcNAc
Procedure, shortened: as §1

GlcNAc(b1-4)GlcNAc = molecular target: GlcNAc(b1-4)GlcNAc
Procedure, shortened: as §1

[7] = molecular target: GlcNAc(b1-4)GlcNAc(b1-4)GlcNAc
Procedure, shortened: as §1

[8] = molecular target: GlcNAc(b1-4)GlcNAc(b1-4)GlcNAc(b1-4)GlcNAc(b1-4)GlcNAc
Procedure, shortened: as §1

[9] = molecular target: GlcNAc(b1-4)GlcNAc(b1-4)GlcNAc(b1-4)GlcNAc(b1-4)GlcNAc(b1-4)GlcNAc
Procedure, shortened: as §1

[10] = molecular target: GlcNAc(b1-4)[GlcNAc(b1-6)]GalNAc
Procedure, shortened: as §1

[11] = molecular target: GlcNAc(b1-6)Gal(b1-4)GlcNAc
Procedure, shortened: as §1

GlcNAc(b1-6)GalNAc = molecular target: GlcNAc(b1-6)GalNAc
Procedure, shortened: as §1

GlcNAc3Prop(b1-4)GlcNAc = molecular target: GlcNAc3Prop(b1-4)GlcNAc
Procedure, shortened: as §1

[12] = molecular target: GlcNAc6S(b1-3)Gal(b1-4)GlcNAc
Procedure, shortened: as §1

Kdn(a2-3)Gal(b1-3)GalNAc = molecular target: Kdn(a2-3)Gal(b1-3)GalNAc
Procedure, shortened: as §1

Kdn(a2-3)Gal(b1-3)GlcNAc = molecular target: Kdn(a2-3)Gal(b1-3)GlcNAc
Procedure, shortened: as §1

Kdn(a2-3)Gal(b1-4)Glc = molecular target: Kdn(a2-3)Gal(b1-4)Glc
Procedure, shortened: as §1

Kdn(a2-3)Gal(b1-4)GlcNAc = molecular target: Kdn(a2-3)Gal(b1-4)GlcNAc
Procedure, shortened: as §1

[13] = molecular target: Kdn(a2-3)Gal(b1-4)[Fuc(a1-3)]GlcNAc
Procedure, shortened: as §1

Kdn(a2-6)Gal(b1-4)GlcNAc = molecular target: Kdn(a2-6)Gal(b1-4)GlcNAc
Procedure, shortened: as §1

[14] = molecular target: Man(a1-2)Man(a1-2)Man(a1-3)Man
Procedure, shortened: as §1

[15] = molecular target: Man(a1-2)Man(a1-2)Man(a1-6)[Man(a1-3)]Man
Procedure, shortened: as §1

Man(a1-2)Man(a1-3)Man = molecular target: Man(a1-2)Man(a1-3)Man
Procedure, shortened: as §1

[16] = molecular target: Man(a1-2)Man(a1-3)[Man(a1-2)Man(a1-6)]Man
Procedure, shortened: as §1

[17] = molecular target: Man(a1-2)Man(a1-3)[Man(a1-2)Man(a1-6)]Man(a1-6)[Man(a1-2)Man(a1-2)Man(a1-3)]Man
Procedure, shortened: as §1

[18] = molecular target: Man(a1-2)Man(a1-3)[Man(a1-2)Man(a1-6)]Man(a1-6)[Man(a1-2)Man(a1-2)Man(a1-3)]Man(b1-4)GlcNAc(b1-4)GlcNAc
Procedure, shortened: as §1

[19] = molecular target: Man(a1-2)Man(a1-3)[Man(a1-6)]Man(a1-6)[Man(a1-2)Man(a1-3)]Man(b1-4)GlcNAc(b1-4)GlcNAc
Procedure, shortened: as §1

[20] = molecular target: Man(a1-2)Man(a1-6)[Man(a1-3)]Man(a1-6)[Man(a1-2)Man(a1-2)Man(a1-3)]Man
Procedure, shortened: as §1

[21] = molecular target: Man(a1-2)Man(a1-6)[Man(a1-3)]Man(a1-6)[Man(a1-2)Man(a1-2)Man(a1-3)]Man(b1-4)GlcNAc(b1-4)GlcNAc
Procedure, shortened: as §1

Man(a1-3)[Man(a1-6)]Man = molecular target: Man(a1-3)[Man(a1-6)]Man
Procedure, shortened: as §1

[22] = molecular target: Man(a1-3)[Man(a1-6)]Man(a1-6)[Man(a1-2)Man(a1-3)]Man(b1-4)GlcNAc(b1-4)GlcNAc
Procedure, shortened: as §1

[23] = molecular target: Man(a1-3)[Man(a1-6)]Man(a1-6)[Man(a1-3)]Man
Procedure, shortened: as §1

[24] = molecular target: Man(a1-3)[Man(a1-6)]Man(a1-6)[Man(a1-3)]Man(b1-4)GlcNAc(b1-4)GlcNAc
Procedure, shortened: as §1

[25] = molecular target: Man(a1-3)[Man(a1-6)]Man(b1-4)GlcNAc(b1-4)GlcNAc
Procedure, shortened: as §1

[26] = molecular target: Man(a1-3)[Man(a1-6)]Man(b1-4)GlcNAc(b1-4)[Fuc(a1-6)]GlcNAc
Procedure, shortened: as §1

B1: Flo1 (Saccharomyces cerevisiae), P32768 (protein)
chain: SGATEACLPAGQRKSGMNINFYQYSLKDSSTYSNAAYMAYGYASKTKLGSVGGQTDISIDYNIPCVSSSGTFPCPQEDSYGNWGCKGMGACSNSQGIAYWSTDLFGFYTTPTNVTLEMTGYFLPPQTGSYTFKFATVDDSAILSVGGATAFNCCAQQQPPITSTNFTIDGIKPWGGSLPPNIEGTVYMYAGYYYPMKVVYSNAVSWGTLPISVTLPDGTTVSDDFEGYVYSFDDDLSQSNCTVPDPSNY
In the case of B1, the “glycan array binding signal (z-score)” value [1] is reported as -0.164, the “glycan array binding signal (z-score)” value [2] is reported as -2.82 and the “glycan array binding signal (z-score)” value (GlcNAc(b1-3)GalNAc) is reported as -0.353. For the same binder, the “glycan array binding signal (z-score)” value (GlcNAc(b1-3)Man) was -0.886, the “glycan array binding signal (z-score)” value [3] was -0.36 and the “glycan array binding signal (z-score)” value [4] was -0.234. The “glycan array binding signal (z-score)” value [5] was 0.176, the “glycan array binding signal (z-score)” value [6] was -0.117 and the “glycan array binding signal (z-score)” value (GlcNAc(b1-4)GlcNAc) was -0.236. For the same binder, the “glycan array binding signal (z-score)” value [7] was -0.704, the “glycan array binding signal (z-score)” value [8] was -0.731 and the “glycan array binding signal (z-score)” value [9] was -0.479. For the same binder, the “glycan array binding signal (z-score)” value [10] was -0.024, the “glycan array binding signal (z-score)” value [11] was -0.808 and the “glycan array binding signal (z-score)” value (GlcNAc(b1-6)GalNAc) was -0.449. The “glycan array binding signal (z-score)” value (GlcNAc3Prop(b1-4)GlcNAc) was -0.198, the “glycan array binding signal (z-score)” value [12] was 1.56 and the “glycan array binding signal (z-score)” value (Kdn(a2-3)Gal(b1-3)GalNAc) was 0.682. The “glycan array binding signal (z-score)” value (Kdn(a2-3)Gal(b1-3)GlcNAc) was 0.305, the “glycan array binding signal (z-score)” value (Kdn(a2-3)Gal(b1-4)Glc) was -0.226 and the “glycan array binding signal (z-score)” value (Kdn(a2-3)Gal(b1-4)GlcNAc) was -0.081. The “glycan array binding signal (z-score)” value [13] was -0.261, the “glycan array binding signal (z-score)” value (Kdn(a2-6)Gal(b1-4)GlcNAc) was -0.389 and the “glycan array binding signal (z-score)” value [14] was 0.403. The “glycan array binding signal (z-score)” value [15] was -0.348, the “glycan array binding signal (z-score)” value (Man(a1-2)Man(a1-3)Man) was 0.251 and the “glycan array binding signal (z-score)” value [16] was 0.743. The “glycan array binding signal (z-score)” value [17] was 0.13, the “glycan array binding signal (z-score)” value [18] was -0.031 and the “glycan array binding signal (z-score)” value [19] was 1.16. The “glycan array binding signal (z-score)” value [20] was -0.65, the “glycan array binding signal (z-score)” value [21] was 0.634 and the “glycan array binding signal (z-score)” value (Man(a1-3)[Man(a1-6)]Man) was -0.463. The “glycan array binding signal (z-score)” value [22] was -0.237, the “glycan array binding signal (z-score)” value [23] was -0.52 and the “glycan array binding signal (z-score)” value [24] was 0.09. The “glycan array binding signal (z-score)” value [25] was -0.334 and the “glycan array binding signal (z-score)” value [26] was 0.698.
